# Assay results reported in patent US7291641B2, “Derivatives of heterocycles with 5 members, their preparation and their use as medicaments” (Societe de Conseils de Recherches et d'Applications …, priority 1999, dated 2007).
# Counter-ions that a name gives are not always drawn. Some entries share one result that the patent states for a list of compounds.
# Tested on: voltage-dependent sodium channels
# Type: binding
# Conditions: homogenate of rat cortex; [3H] batrachotoxin-A 20-alpha benzoate 5 nM; 1 hour 30 minutes at 25° C.; read-out: IC50 on the bond of tritiated batrachotoxin on the voltage-dependent sodium channels
row,SMILES,IC50
1,"CC(C)COC(=O)NCCc1nc(-c2ccc(-c3ccc(Br)cc3)cc2)c[nH]1 [Example 338, isobutyl 2-[4-(4′-bromo-1,1′-biphenyl-4-yl)-1H-imidazol-2-yl]ethylcarbamate]",≤ 1000 nM
2,"CC(C)COC(=O)NCCc1nc(-c2ccc(C(C)(C)C)cc2)c[nH]1 [Example 339, isobutyl 2-[4-(4-tert-butylphenyl)-1H-imidazol-2-yl]ethylcarbamate]",≤ 1000 nM
3,"CC(C)(C)c1ccc(-c2c[nH]c(CCNC(=O)OCC3CCC3)n2)cc1 [Example 340, cyclobutylmethyl 2-[4-(4-tert-butylphenyl)-1H-imidazol-2-yl]ethylcarbamate]",≤ 1000 nM
4,"CNCCc1nc(-c2cc(C(C)(C)C)c(O)c(C(C)(C)C)c2)cs1 [Example 350, 2,6-ditert-butyl-4-{2-[2-(methylamino)ethyl]-1,3-thiazol-4-yl}phenol hydrochloride]",≤ 1000 nM
5,"CNC(C)c1nc(-c2cc(C(C)(C)C)c(O)c(C(C)(C)C)c2)cs1 (stereo not shown) [Example 352, 2,6-ditert-butyl-4-{2-[1-(methylamino)ethyl]-1,3-thiazol-4-yl}phenol hydrochloride]",≤ 1000 nM
6,"CNCc1coc(-c2cc(C(C)(C)C)c(O)c(C(C)(C)C)c2)n1 [Example 354, 2,6-ditert-butyl-4-{4-[(methylamino)methyl]-1,3-oxazol-2-yl}phenol hydrochloride]",≤ 1000 nM
7,"CNCc1nc(-c2cc(C(C)(C)C)c(O)c(C(C)(C)C)c2)c(C)s1 [Example 361, 2,6-ditert-butyl-4-{5-methyl-2-[(methylamino)methyl]-1,3-thiazol-4-yl}phenol hydrochloride]",≤ 1000 nM
8,"CNCc1nc(-c2cc(C(C)(C)C)c(OC)c(C(C)(C)C)c2)cs1 [Example 364, 1-[4-(3,5-ditert-butyl-4-methoxyphenyl)-1,3-thiazol-2-yl]-N-methylmethanamine hydrochloride]",≤ 1000 nM
9,"CCNCc1nc(-c2cc(C(C)(C)C)c(O)c(C(C)(C)C)c2)cs1 [Example 365, 2,6-ditert-butyl-4-{2-[(ethylamino)methyl]-1,3-thiazol-4-yl}phenol hydrochloride]",≤ 1000 nM
10,"CN1CCCN(Cc2nc(-c3cc(C(C)(C)C)c(O)c(C(C)(C)C)c3)cs2)CC1 [Example 367, 2,6-ditert-butyl-4-{2-[(4-methyl-1,4-diazepan-1-yl)methyl]-1,3-thiazol-4-yl}phenol hydrochloride]",≤ 1000 nM
11,"CC(C)NCc1nc(-c2cc(C(C)(C)C)c(O)c(C(C)(C)C)c2)cs1 [Example 369, 2,6-ditert-butyl-4-{2-[(isopropylamino)methyl]-1,3-thiazol-4-yl}phenol hydrochloride]",≤ 1000 nM
12,"CC(C)(C)c1cc(-c2csc(CN3CCC(O)CC3)n2)cc(C(C)(C)C)c1O [Example 377, 1-{[4-(3,5-ditert-butyl-4-hydroxyphenyl)-1,3-thiazol-2-yl]methyl}piperidin-4-ol hydrochloride]",≤ 1000 nM
13,"CC(C)CCCOC(=O)NCCc1nc(-c2ccc(-c3ccccc3)cc2)c[nH]1 [Example 378, 4-methylpentyl 2-[4-(1,1′-biphenyl-4-yl)-1H-imidazol-2-yl]ethylcarbamate]",≤ 1000 nM
14,"CC(C)(C)CCOC(=O)NCCc1nc(-c2ccc(N3CCCC3)cc2)c[nH]1 [Example 379, 3,3-dimethylbutyl 2-[4-(4-pyrrolidin-1-ylphenyl)-1H-imidazol-2-yl]ethylcarbamate]",≤ 1000 nM
15,"CC(C)CCOC(=O)NCCc1nc(-c2ccc(-c3ccccc3)cc2)c[nH]1 [Example 380, isopentyl 2-[4-(1,1′-biphenyl-4-yl)-1H-imidazol-2-yl]ethylcarbamate]",≤ 1000 nM
16,"CCCCCCOC(=O)NCCc1nc(-c2ccc(-c3ccc(Br)cc3)cc2)c[nH]1 [Example 381, hexyl 2-[4-(4′-bromo-1,1′-biphenyl-4-yl)-1H-imidazol-2-yl]ethylcarbamate]",≤ 1000 nM

row,SMILES,IC50
1,"CC(C)(C)c1ccc(-c2c[nH]c(CCNC(=O)OCc3ccccc3)n2)cc1 [Example 382, benzyl 2-[4-(4-tert-butylphenyl)-1H-imidazol-2-yl]ethylcarbamate]",≤ 1000 nM
2,"CC(C)(C)CCOC(=O)NCCc1nc(-c2ccc(-c3ccccc3)cc2)c[nH]1 [Example 383, 3,3-dimethylbutyl 2-[4-(1,1′-biphenyl-4-yl)-1H-imidazol-2-yl]ethylcarbamate]",≤ 1000 nM
3,"CCCCCCOC(=O)NCCc1nc(-c2ccc(N3CCCC3)cc2)c[nH]1 [Example 384, hexyl 2-[4-(4-pyrrolidin-1-ylphenyl)-1H-imidazol-2-yl]ethylcarbamate]",≤ 1000 nM
4,"O=C(NCCc1nc(-c2ccc(N3CCCC3)cc2)c[nH]1)OCCCC(F)(F)F [Example 385, 4,4,4-trifluorobutyl 2-[4-(4-pyrrolidin-1-ylphenyl)-1H-imidazol-2-yl]ethylcarbamate]",≤ 1000 nM
5,"CCCCCCOC(=O)NCCc1nc(-c2cc(C(C)(C)C)c(O)c(C(C)(C)C)c2)c[nH]1 [Example 386, hexyl 2-[4-(3,5-ditert-butyl-4-hydroxyphenyl)-1H-imidazol-2-yl]ethylcarbamate]",≤ 1000 nM
6,"COc1ccc(-c2c[nH]c(CCNC(=O)OCCC(C)(C)C)n2)cc1 [Example 388, 3,3-dimethylbutyl 2-[4-(4-methoxyphenyl)-1H-imidazol-2-yl]ethylcarbamate]",≤ 1000 nM
7,"CC(C)(C)c1cc(-c2c[nH]c(CCNC(=O)OCc3ccccc3)n2)cc(C(C)(C)C)c1O [Example 389, benzyl 2-[4-(3,5-ditert-butyl-4-hydroxyphenyl)-1H-imidazol-2-yl]ethylcarbamate]",≤ 1000 nM
8,"O=C(NCCc1nc(-c2ccc(N3CCCC3)cc2)c[nH]1)OCc1ccccc1 [Example 390, benzyl 2-[4-(4-pyrrolidin-1-ylphenyl)-1H-imidazol-2-yl]ethylcarbamate]",≤ 1000 nM
9,"O=C(NCCc1nc(-c2ccc(-c3ccccc3)cc2)c[nH]1)OCCc1ccccc1 [Example 391, 2-phenylethyl 2-[4-(1,1′-biphenyl-4-yl)-1H-imidazol-2-yl]ethylcarbamate]",≤ 1000 nM
10,"CCCCOC(=O)NCCc1nc(-c2ccc(-c3ccc(F)cc3)cc2)c[nH]1 [Example 392, butyl 2-[4-(4′-fluoro-1,1′-biphenyl-4-yl)-1H-imidazol-2-yl]ethylcarbamate]",≤ 1000 nM
11,"CCCCOC(=O)NCCc1nc(-c2ccc(-c3ccccc3)cc2)c(C)[nH]1 [Example 393, butyl 2-[4-(1,1′-biphenyl-4-yl)-5-methyl-1H-imidazol-2-yl]ethylcarbamate]",≤ 1000 nM
12,"CCCCOC(=O)NCCc1nc(-c2ccc(-c3ccc(C)cc3)cc2)c[nH]1 [Example 394, butyl 2-[4-(4′-methyl-1,1′-biphenyl-4-yl)-1H-imidazol-2-yl]ethylcarbamate]",≤ 1000 nM
13,"CCCCOC(=O)NCCc1nc(-c2ccc(-c3ccc(Cl)cc3)cc2)c[nH]1 [Example 395, butyl 2-[4-(4′-chloro-1,1′-biphenyl-4-yl)-1H-imidazol-2-yl]ethylcarbamate]",≤ 1000 nM
14,"CCCCOC(=O)NCCc1nc(-c2ccc(-c3ccccc3F)cc2)c[nH]1 [Example 396, butyl 2-[4-(2′-fluoro-1,1′-biphenyl-4-yl)-1H-imidazol-2-yl]ethylcarbamate]",≤ 1000 nM
15,"CCCCNCc1nc(-c2ccc3c(c2)Nc2ccccc2S3)cs1 [Example 401, N-{[4-(10H-phenothiazin-2-yl)-1,3-thiazol-2-yl]methyl}butan-1-amine]",≤ 1000 nM
